Values from PubChem BioAssay AID1259308 (NCATS, 2017).
The deposit covers about 59,000 reagents; shown is a random part of them. In the full data, about 1,510 (2.6%) are marked active. 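Calls use total luciferase alone and ignore viability, so some active siRNAs may act by altering cell number.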 The numbers tell different reagents against one gene apart. Further read-outs or replicates are left out here.

Test: 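Candidate targets for better recombinant protein yield in mammalian cells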 (primary screen)
Cell system: human HEK293 embryonic kidney cells stably expressing firefly luciferase (HEK-CMV-Luc2-Hygro)
Reagents: single siRNA against human genes, 0.8 pmol siRNA per well
Timing: 72 h
Measured: 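Luciferase light (ONE-Glo) measured on one replicate plate set and viability (CellTiter-Glo) on the other, scaled to a negative control siRNA, with robust z-scores and luciferase per cell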
Reading the numbers: total luciferase, z-score: higher = more reporter protein produced
Active means: 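An siRNA counts as active if its total luciferase robust z-score exceeds 3; genes with two or more such siRNAs out of three were retested with fresh siRNAs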
Calls: active = raised luciferase; inactive = no rise

For ZNF775 (zinc finger protein 775) #1 the deposit lists total luciferase, z-score -0.292; inactive.
ZNF775 (zinc finger protein 775) #2 scored total luciferase, z-score -1.42; inactive.
ZNF775 (zinc finger protein 775) #3 gave total luciferase, z-score 0.335; inactive.
After knock-down of IFNA5 (interferon alpha 5) #1 the results were total luciferase, z-score 3.89; active.
Knock-down of IFNA5 (interferon alpha 5) #2 came out at: total luciferase, z-score 0.834; inactive.
After knock-down of IFNA5 (interferon alpha 5) #3, the screen gave total luciferase, z-score -1.68; inactive.
Silencing of BPIFB6 (BPI fold containing family B member 6) #1 came out at: total luciferase, z-score 0.498; inactive.
BPIFB6 (BPI fold containing family B member 6) #2 scored total luciferase, z-score 4.18; active.
Against BPIFB6 (BPI fold containing family B member 6) #3 the deposit lists total luciferase, z-score 0.183; inactive.
Against LMBR1L (limb development membrane protein 1 like) #1 the deposit lists total luciferase, z-score 1.31; inactive.
After knock-down of LMBR1L (limb development membrane protein 1 like) #2, the record shows total luciferase, z-score 0.159; inactive.
For LMBR1L (limb development membrane protein 1 like) #3, the values are total luciferase, z-score -0.408; inactive.
Silencing of NNT (nicotinamide nucleotide transhydrogenase) #1 resulted in: total luciferase, z-score 0.933; inactive.
After knock-down of NNT (nicotinamide nucleotide transhydrogenase) #2, the screen gave total luciferase, z-score 0.352; inactive.
After knock-down of NNT (nicotinamide nucleotide transhydrogenase) #3, the record shows total luciferase, z-score -0.622; inactive.
PTPN20 (protein tyrosine phosphatase non-receptor type 20) #1 showed total luciferase, z-score -0.385; inactive.
Knock-down of PTPN20 (protein tyrosine phosphatase non-receptor type 20) #2 came out at: total luciferase, z-score -0.178; inactive.
PTPN20 (protein tyrosine phosphatase non-receptor type 20) #3 showed total luciferase, z-score -0.341; inactive.
PTPN20 (protein tyrosine phosphatase non-receptor type 20) #4 scored total luciferase, z-score 0.211; inactive.
PTPN20 (protein tyrosine phosphatase non-receptor type 20) #5 scored total luciferase, z-score 0.514; inactive.
Knock-down of PTPN20 (protein tyrosine phosphatase non-receptor type 20) #6 resulted in: total luciferase, z-score -0.311; inactive.
MPST (mercaptopyruvate sulfurtransferase) #1 gave total luciferase, z-score -1; inactive.
MPST (mercaptopyruvate sulfurtransferase) #2 scored total luciferase, z-score 0.236; inactive.
MPST (mercaptopyruvate sulfurtransferase) #3 showed total luciferase, z-score 2.62; inactive.
For HDHD3 (haloacid dehalogenase like hydrolase domain containing 3) #1 the deposit lists total luciferase, z-score -0.493; inactive.
After knock-down of HDHD3 (haloacid dehalogenase like hydrolase domain containing 3) #2, the screen gave total luciferase, z-score -0.409; inactive.
HDHD3 (haloacid dehalogenase like hydrolase domain containing 3) #3 gave total luciferase, z-score -0.909; inactive.
SNX4 (sorting nexin 4) #1 scored total luciferase, z-score 1.07; inactive.
After knock-down of SNX4 (sorting nexin 4) #2, the screen gave total luciferase, z-score 0.819; inactive.
With knock-down of SNX4 (sorting nexin 4) #3, the record shows total luciferase, z-score -0.087; inactive.
For REV3L (REV3 like, DNA directed polymerase zeta catalytic subunit) #1, the values are total luciferase, z-score 1.07; inactive.
REV3L (REV3 like, DNA directed polymerase zeta catalytic subunit) #2 scored total luciferase, z-score -0.364; inactive.
REV3L (REV3 like, DNA directed polymerase zeta catalytic subunit) #3 scored total luciferase, z-score -0.343; inactive.

2 neighbouring entries from above:
IFNA5 (interferon alpha 5) #2 — total luciferase, z-score: 0.834; call: inactive
IFNA5 (interferon alpha 5) #3 — total luciferase, z-score: -1.68; call: inactive
